# Library screening results

Chains of the proteins cited; added tags and fusions are not shown.
UniProt E9BF75, entry or part of it: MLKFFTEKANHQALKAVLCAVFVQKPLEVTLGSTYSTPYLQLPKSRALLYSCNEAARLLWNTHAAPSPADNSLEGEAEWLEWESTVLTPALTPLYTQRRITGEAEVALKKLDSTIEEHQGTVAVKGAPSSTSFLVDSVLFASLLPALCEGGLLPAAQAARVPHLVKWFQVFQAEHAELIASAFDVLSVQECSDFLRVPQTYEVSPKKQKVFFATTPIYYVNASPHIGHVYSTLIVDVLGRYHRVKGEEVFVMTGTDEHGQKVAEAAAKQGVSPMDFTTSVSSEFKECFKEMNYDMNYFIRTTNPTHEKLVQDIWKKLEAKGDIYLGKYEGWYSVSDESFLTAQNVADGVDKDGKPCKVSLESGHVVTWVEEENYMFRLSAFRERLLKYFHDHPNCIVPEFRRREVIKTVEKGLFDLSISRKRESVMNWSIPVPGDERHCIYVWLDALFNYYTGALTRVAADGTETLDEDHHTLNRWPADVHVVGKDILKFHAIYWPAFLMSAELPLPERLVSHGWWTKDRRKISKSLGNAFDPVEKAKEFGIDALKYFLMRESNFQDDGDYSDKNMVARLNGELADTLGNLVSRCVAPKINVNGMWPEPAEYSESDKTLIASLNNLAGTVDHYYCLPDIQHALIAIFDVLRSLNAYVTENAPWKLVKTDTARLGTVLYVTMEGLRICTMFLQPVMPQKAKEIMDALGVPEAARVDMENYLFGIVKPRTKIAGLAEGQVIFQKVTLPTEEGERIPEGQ

Data taken from ChEMBL document CHEMBL3988442, “University of Dundee, Small-Polar-MMV Screening Library” (2021).

All values are in %.
The record does not define 0% and 100%; most values in the screen are far below 50% and negative numbers occur (in some assays of this library far below -100).
Compounds were drawn at random from those tested, without regard to their results.
A dash means the value is not listed here; it may have been measured.

LdMetRS: 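Methionyl-tRNA synthetase (putative), Leishmania donovani (UniProt E9BF75). Primary screen of methionyl-tRNA synthetase; the read-out is not stated. The test concentration is not given. Values are per cent inhibition. Of about 68,000 compounds tested this way, about 24 (0.035%) reached 50% or more in at least one test.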
Mtb heat-shock: 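Assay on Mycobacterium tuberculosis, filed only as a heat shock assay from Cornell; the read-out is not stated. The concentration is filed as 10 mM, unlikely as a test dose, so the dose is not known. The record gives no direction; compounds that gave an IC50 in retests scored well above the rest, so higher reads as stronger inhibition. About 69,000 compounds were tested under these conditions; 1.4% (about 930) showed 50% or more at least once.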

| # | Compound | LdMetRS | Mtb heat-shock |
|---|---|---|---|
| 1 | `Cc1sc2nc(SC(C)c3nc(C(C)(C)C)no3)nc(N)c2c1C` (centres unmarked) | 8.935 | 7.731 |
| 2 | `COC(=O)CN(C(=O)c1ccco1)c1cccc(F)c1` | 4.467 | -15.51 |
| 3 | `COCCCN1CC2(CCCN(c3ncnc4[nH]ccc34)C2)CCC1=O` (centres unmarked) | 11 | -15.44 |
| 4 | `OCC1(CC2CC2)CCCN(Cc2cnc(N3CCOCC3)nc2)C1` (centres unmarked) | -3.562 | -15.99 |
| 5 | `Cc1cnc(N(C)CCCc2cnn(C)c2)nc1N(C)C` | -0.5376 | -11.78 |
| 6 | `Cc1ccccc1C(C)(C)CNC(=O)CCSc1nnnn1C` | 1.047 | -10.53 |
| 7 | `CCc1nc2c(NCC3COc4ccccc4C3)ncnc2o1` (centres unmarked) | 11.73 | 5.927 |
| 8 | `Cc1cc(C[S+]([O-])Cc2ccccc2F)no1` (centres unmarked) | 4.762 | -8.609 |
| 9 | `CCC[C@@H]1CN(Cc2ccc(C(F)(F)F)nc2)C[C@H]1C(=O)O` | 19.15 | -0.1066 |
| 10 | `CC(C)c1ncncc1C(=O)NCCN1CCCCCC1` | 23.08 | -31.31 |
| 11 | `O=C(NCc1ccccc1CN1CCCC1=O)Nc1nccs1` | 10.34 | -1.271 |
| 12 | `COc1ccc(N2CCC(C(=O)/N=c3/[nH]ccs3)CC2)nn1` | 13.69 | 0.3989 |
| 13 | `COC(=O)C(NC(=O)c1cc(C)ccc1C)c1cccnc1` (centres unmarked) | 13.94 | -4.641 |
| 14 | `Cn1c(C2CC2)nc2c1CCN(CCS(=O)(=O)c1ccccc1)C2` | 9.091 | 0.3669 |
| 15 | `Cc1n[nH]c(CN2CCN(Cc3ccccc3)[C@@H]3CS(=O)(=O)C[C@@H]32)n1` | 15.46 | - |
| 16 | `c1csc(-c2nc(CNCCn3cccn3)cs2)c1` | 15.64 | 10.7 |
| 17 | `Cc1ccc(N2CCN(Cc3ccccc3)C3(CCNCC3)C2=O)cn1` | 10.51 | - |
| 18 | `Cc1ccc(CN2C[C@@H]3COC[C@H](NS(C)(=O)=O)[C@@H]3C2)o1` | 8.787 | - |
| 19 | `COc1ccc(CCC(=O)N2CCN(c3nc(C)ns3)CC2)cc1` | 10.89 | -21.43 |
| 20 | `CN(C)C(c1ccccn1)[C@H]1CC[C@H](CNC(=O)C2CCCC2)CC1` (some centres unmarked) | 18.62 | 5.938 |
| 21 | `COC(=O)C1CCN(CC2(c3ccc(C)cn3)CCNCC2)CC1` | 18.68 | 4.658 |
| 22 | `Cc1nn2cccnc2c1C(=O)N1CCCC(n2ccnc2C)C1` (centres unmarked) | 7.831 | -22.54 |
| 23 | `Cc1cccc(=O)n1CCC(=O)N1CC[C@@](O)(C2CCC2)[C@H](C)C1` | 9.025 | -7.433 |
| 24 | `CC(NCc1ccc(OCC(N)=O)cc1)c1ccc(Cl)cc1` (centres unmarked) | 2.448 | - |
| 25 | `CN1CCOC(CNC(=O)C2(c3cccc(Cl)c3)CC2)C1` (centres unmarked) | 13.15 | -13.78 |
| 26 | `Cc1nc(-c2ccsc2)ccc1C(=O)NCCC(=O)N1CCCC1` | 13.27 | 3.186 |
| 27 | `CCOCC(=O)N1CCC2(CC1)COCCN2CCN(C)C` | 9.041 | - |
| 28 | `O=C(O)C(F)(F)F.O=C(O)C(F)(F)F.O=C(O)C(F)(F)F.[H][C@@]12CCCO[C@]1([H])[C@H](N(C)Cc1ccco1)CN2Cc1nccn1C` | - | -7.394 |
| 29 | `O=S1(=O)CCC(n2nc(COc3ccccc3)nc2-c2cnccn2)C1` (centres unmarked) | 13.38 | -18.06 |
| 30 | `Cc1cc(F)ccc1NCC(=O)NCC(F)(F)F` | 7.692 | -12.06 |
| 31 | `Cc1ccc(-c2noc(CN3CCOC(CN(C)C)C3)n2)cc1F` (centres unmarked) | 4.127 | 9.888 |
| 32 | `Cc1cccnc1CCNC(=O)[C@@]12CNC[C@@H]1CN(S(C)(=O)=O)C2` | 9.6 | - |
| 33 | `Cc1cnn(CC2CCCN2CC(=O)Nc2cc(C)no2)c1` (centres unmarked) | 3.825 | 35.93 |
| 34 | `CCOCC1c2c(cnn2CC2CC2)CCN1C(=O)c1ccncn1` (centres unmarked) | 1.449 | - |
| 35 | `CCN1C[C@H]2[C@@H](C1)N(S(=O)(=O)c1cccnc1)CC[C@H]2OC` | -6.62 | - |
| 36 | `CC(C)Cc1cc(C(=O)O)nc2[nH]c(=O)[nH]c(=O)c12` | 19.35 | 4.978 |
| 37 | `COc1cccc(CC(=O)N2CCC3(CC2)OCCCC3O)c1OC` (centres unmarked) | 9.763 | 17.77 |
| 38 | `CCN(Cc1nccn1C)C(=O)c1ccc(NCC(C)C)nc1` | 11.06 | 6.034 |
| 39 | `Cc1cccc(N2CCOCC3(C2)CN(c2cnn(C)c2)C(=O)CO3)n1` (centres unmarked) | -3.297 | - |
| 40 | `Cc1cc(-c2c(C)c(-c3cnn(C)c3)nc(N)c2C#N)oc1C` | 12.71 | 17.98 |
| 41 | `CCNC(=O)[C@@H]1C[C@@H](N)CN1C(=O)c1[nH]c2ccccc2c1CC` | 8.123 | -9.866 |
| 42 | `O=C(CN1CCCCC1Cn1cccn1)NC1CCOCC1` (centres unmarked) | 3.679 | 4.727 |
| 43 | `CC(C)CC(C)NCc1cccnc1N1CCOCC1` (centres unmarked) | 11.14 | -13.55 |
| 44 | `CN(CC(N)=O)C(=O)c1csc(Br)c1` | 11.75 | 6.988 |
| 45 | `CC1c2ncc(COc3cccnc3)n2CCN1C(=O)Cc1ccco1` (centres unmarked) | 17.84 | - |
| 46 | `CC(=O)c1cc(CN2C[C@H]3CC[C@@H]2CN(S(=O)(=O)N(C)C)C3)cs1` | 8.85 | - |
| 47 | `CCC1CN(C(=O)c2ccccc2C#N)CCN1C(C)C` (centres unmarked) | 11.83 | -6.968 |
| 48 | `CCCn1ncc(CN(Cc2cccnc2)Cc2ccsc2)c1C` | 9.524 | 5.203 |
| 49 | `CCc1ccc(CCC(=O)N2CCOCC2c2ncon2)cc1` (centres unmarked) | 9.841 | 12 |
| 50 | `CCC(CC)C(=O)N1CCC2(C1)CN(c1ccccc1)C(=O)CN2C` (centres unmarked) | 12.45 | - |
| 51 | `COCC(=O)N[C@H](C)c1onc(-c2ccccc2)c1C(=O)O` | 4.407 | -23.48 |
| 52 | `OC(CN1CCN(Cc2ccccc2)CC1)C1CC1` (centres unmarked) | 15.73 | - |
| 53 | `CN(Cc1ccccc1)C(=O)CSc1ccc2c(c1)OCCO2` | 0 | -11.29 |
| 54 | `CCc1nccn1C1CCCN(C(=O)c2cnn(C)c2C2CC2)C1` (centres unmarked) | 12.42 | 11.69 |
| 55 | `CN(C)c1ccnc(C2CCCN2)n1.Cl` (centres unmarked) | - | -9.101 |
| 56 | `Cc1cnn(CC2CCCCN2c2ncnc3ccccc23)c1` (centres unmarked) | 13.09 | 11.63 |
| 57 | `COc1ccc(CN(C)c2ncc(S(N)(=O)=O)s2)c(OC)c1` | 10.34 | -3.421 |
| 58 | `CCCN1CCC2(CC1)COc1ccccc1S(=O)(=O)N(CC1CC1)C2.O=C(O)C(F)(F)F` | - | 5.615 |
| 59 | `O=S1(=O)CCC(c2nc(-c3cccc(Br)c3)no2)C1` (centres unmarked) | 16.09 | 2.28 |
| 60 | `CC(C)(C)NCc1nn(Cc2ccccc2)nc1-c1ccccc1` | 6.281 | 6.969 |
| 61 | `Cc1noc(C)c1CN1C[C@@H]2C[C@@H](C)O[C@@H]2C1` | 16.94 | - |

The first 7 entries again:

- Cc1sc2nc(SC(C)c3nc(C(C)(C)C)no3)nc(N)c2c1C (centres unmarked) | LdMetRS: 8.935%; Mtb heat-shock: 7.731%
- COC(=O)CN(C(=O)c1ccco1)c1cccc(F)c1 | LdMetRS: 4.467%; Mtb heat-shock: -15.51%
- COCCCN1CC2(CCCN(c3ncnc4[nH]ccc34)C2)CCC1=O (centres unmarked) | LdMetRS: 11%; Mtb heat-shock: -15.44%
- OCC1(CC2CC2)CCCN(Cc2cnc(N3CCOCC3)nc2)C1 (centres unmarked) | LdMetRS: -3.562%; Mtb heat-shock: -15.99%
- Cc1cnc(N(C)CCCc2cnn(C)c2)nc1N(C)C | LdMetRS: -0.5376%; Mtb heat-shock: -11.78%
- Cc1ccccc1C(C)(C)CNC(=O)CCSc1nnnn1C | LdMetRS: 1.047%; Mtb heat-shock: -10.53%
- CCc1nc2c(NCC3COc4ccccc4C3)ncnc2o1 (centres unmarked) | LdMetRS: 11.73%; Mtb heat-shock: 5.927%